The other results are listed elsewhere or left out. These are raw signals, not scaled to a control.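 In the initial screen, polymyxin B was used at a concentration that permeabilizes Salmonella's outer membrane but not its inner membrane. Maximum growth was set by DMSO wells with or without polymyxin B. Since plates varied, data were ranked per plate, and compounds giving the lowest OD600 advanced as hits.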

Data on 32 compounds can be found in the supplement of paper PMC12889115.

This experiment concerns Salmonella enterica serovar Typhimurium SL1344. The experiment is described as follows: bacterial growth OD600 after 18 h with compound and polymyxin B; higher = more bacterial growth (less inhibition). The settings on record: 50 µM, Mueller-Hinton broth.

For the compound `Oc1ccc(CN2CC[C@@H](N3CCC(O)CC3)[C@H](O)C2)cc1Cl`, for the setting “polymyxin B 1 µg/mL”, the “bacterial growth OD600” value was 0.857. Still for that read-out and setting: the figure for `COc1cccc(OCc2nc(C(=O)NCc3c(F)cccc3F)co2)c1` is 0.928; for `COc1ccc(CN2CCN(Cc3cccc(F)c3)CC2CCO)c(C)c1C` (configuration not stated) it is 1.03; for `CCCC(=O)NC1CC(=O)N(CCc2cccc(Cl)c2)C1` (configuration not stated) it is 0.813. On the same count and under the same terms, the figure for `c1ccc(Oc2ncccc2CNCc2cnn(-c3ccccc3)c2)cc1` is 0.959.

With `CC1=C(C(=O)N2CCCC(CCC(=O)NCc3ccccc3Cl)C2)OCCO1` (configuration not stated), the “bacterial growth OD600” value (polymyxin B 0.75 µg/mL) was 0.859. For the compound `O=C(CCC1CCN(C(=O)c2cn3ccsc3n2)CC1)NCc1cccnc1`, the “bacterial growth OD600” value (polymyxin B 1 µg/mL) came out at 0.991. Take `CC(C)C(=O)N1CCCC1C(=O)Nc1ccccc1Oc1cccnc1` (configuration not stated): the “bacterial growth OD600” value (polymyxin B 1 µg/mL) was found to be 0.871. `CC(C)N(C)Cc1nnnn1CC(=O)N1CCCC(C(=O)c2cccs2)C1` (configuration not stated): under “polymyxin B 0.75 µg/mL”, the “bacterial growth OD600” value was determined as 0.804. With `CCc1csc(CNC(=O)c2ccc(NC3CCCC3)nc2)n1`, the “bacterial growth OD600” value (polymyxin B 1 µg/mL) was 0.927.

Take `CCC1CN(CCNC(=O)CCCc2ccccc2)Cc2cc(OC)ccc2O1` (configuration not stated): the “bacterial growth OD600” value (polymyxin B 0.75 µg/mL) was found to be 0.776. The same measure, in the same setting: the figure for `O=C(NCC1Cc2cccc(-c3ncccn3)c2O1)C1CCC1` (configuration not stated) is 0.871.

`CC(C)N(Cc1cnn(C)c1)Cc1nc(-c2ccc(C(F)(F)F)cc2)no1`: the “bacterial growth OD600” value (polymyxin B 1 µg/mL) turned out to be 0.973.

As for `COc1ccc(CCN2C(=O)O[C@@H]3CN(Cc4cnn(C)c4C)C[C@@H]32)cc1`, the “bacterial growth OD600” value (polymyxin B 0.75 µg/mL) worked out at 0.806.

Consider `COc1ccccc1N1CCN(c2nc(CNC(=O)c3ccncc3)nc3ccccc23)CC1`, for which, for the setting “polymyxin B 0.75 µg/mL”, the “bacterial growth OD600” value is 0.82. Take `CCOC(=O)CC1COCCN1C(=O)c1ccc(-n2cc(NC(=O)c3ccc(C)cc3C)cn2)cc1` (configuration not stated): the “bacterial growth OD600” value (polymyxin B 0.75 µg/mL) amounted to 0.723. Same read-out and setting: the same measure for `OC(Cc1ccccc1)c1ccc2c(c1)CN(C1CCCC1)CCO2` (configuration not stated): 0.75. As for `CCOC(=O)C1(CCOc2ccccc2)CCCN(C(=O)CCN2CCCCO2)C1` (configuration not stated), under “polymyxin B 1 µg/mL”, the “bacterial growth OD600” value was determined as 0.703. Regarding `Cc1c(CC(=O)NCc2ccon2)c2c(n1CC(C)C)CC(C)(C)CC2=O`, for the setting “polymyxin B 1 µg/mL”, the “bacterial growth OD600” value is 0.849. Turning to `COCCNC(=O)c1ccc(OC)cc1OC1CCN(Cc2cc3ccccc3o2)CC1`, the “bacterial growth OD600” value (polymyxin B 1 µg/mL) worked out at 1.21. Take `COc1ccccc1CCNC(=O)Cc1ccc(N2CCC(NC(C)Cc3ccsc3)CC2)cc1` (configuration not stated): where the note is “polymyxin B 0.75 µg/mL”, the “bacterial growth OD600” value was 0.843. Same read-out and setting: the same measure for `CS(=O)(=O)NCc1cccnc1Oc1ccccc1F`: 0.815; for `CC(C)S(=O)(=O)N1CCC(C2CCN(Cc3ccc(Cl)cc3)C2)CC1` (configuration not stated): 0.799. As to `CSc1ccc(CC2(CCC(=O)NCc3cnn(Cc4ccccc4)c3)CCC(=O)N2)cc1` (configuration not stated), the “bacterial growth OD600” value (polymyxin B 0.75 µg/mL) turned out to be 0.885. For `CCN(CCO)C(=O)C1CCN(c2nc(-c3ccccc3)nc3c2CCC3)CC1`, the “bacterial growth OD600” value (polymyxin B 0.75 µg/mL) is 0.869.

As for `Cc1c(CC(=O)N[C@H]2CCCCNC2=O)c2c(n1CC(C)C)CC(C)(C)CC2=O`, the “bacterial growth OD600” value (polymyxin B 1 µg/mL) is 1.03. Regarding `COCC1CCCN(C(=O)c2cc(COc3cccc(C(C)=O)c3)on2)C1` (configuration not stated), the “bacterial growth OD600” value (polymyxin B 1 µg/mL) amounted to 1.04. Turning to `CCC1CN(CCNC(=O)CCc2ccc3c(c2)OCO3)Cc2cc(OC)ccc2O1` (configuration not stated), where the note is “polymyxin B 0.75 µg/mL”, the “bacterial growth OD600” value came out at 0.847.

As for `CCC1CN(Cc2ccc(C(=O)OC)cc2)Cc2cc(OC)ccc2O1` (configuration not stated), the “bacterial growth OD600” value (polymyxin B 0.75 µg/mL) was 0.001. As for `O=C(Nc1ccc(Oc2cccnc2)cc1)C1CCN(Cc2ccccc2)CC1`, where the note is “polymyxin B 1 µg/mL”, the “bacterial growth OD600” value was 0.795. Take `CN(C(=O)c1ccco1)C(Cc1ccc(F)cc1F)C1CCN(Cc2cc(F)ccc2F)CC1` (configuration not stated): the “bacterial growth OD600” value (polymyxin B 0.75 µg/mL) is 0.587. The same measure, in the same setting: the same measure for `COc1ccc(C(=O)N2CCCC2)c(OC2CCN(C3CCCCCC3)CC2)c1`: 0.831.
